Test results from patent publication US20130078268A1 (priority 2010, published 2013).
Where no end group is shown, it is not given here. [ ]: non-standard residue; d: D form. pGlu = O=C1CC[C@@H](C(=O)O)N1

Test: general procedure: Fmoc solid-phase peptide synthesis; HCTU
Details: whole synthesis, HPLC

Substance: [pGlu]PPGGSKVILF
- purity (crude or final not stated): >95%
